{"source": "PubChem BioAssay AID504793 | Drosophila RNAi Screening Center | 2011", "test": "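Knock-downs allowing continued mitosis even though DNA is damaged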 (primary screen)", "cells": "Drosophila S2R+ cells", "reagent": "long dsRNA against Drosophila genes, about 0.25 µg dsRNA per well", "duration": "4 days of dsRNA, then 4 hours of drug before read-out", "conditions": "doxorubicin 0.5 µM for 4 hours to cause double-strand breaks, in cells also given a low, harmless dose of dsRNA against nbs to sensitise the assay", "detection": "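Mitotic index as the number of phospho-histone H3-positive cells in each well following doxorubicin, given as raw counts without normalisation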", "scale": "mitotic cells: higher = more cells in mitosis, weaker G2 arrest", "rule for the call": "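Genes are called active only when high mitotic counts were reproduced with independent dsRNAs and mitosis was checked for delay without damage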", "meaning of the calls": "active = confirmed in follow-up tests; inactive = not confirmed", "note": "In all, the deposit lists about 23,000 reagents; this is an unselected part of those with a known target gene and a result. Of all reagents, 62 (0.27%) are marked active. 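Calls come from follow-up tests whose scores are not deposited, so confirmed genes may have low counts here; counts are not normalised per plate.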 Raw values are not corrected between plates. A plus sign joins genes that one reagent is predicted to hit."}
{"gene":"fne (found in neurons)","dsRNA":"DRSC20332","mitotic cells, replicate 1":11,"activity call":"inactive"}
{"gene":"fne (found in neurons)","dsRNA":"DRSC25027","mitotic cells, replicate 1":3,"activity call":"inactive"}
{"gene":"fne (found in neurons)","dsRNA":"DRSC25129","mitotic cells, replicate 1":7,"activity call":"inactive"}
{"gene":"B-H2 (BarH2)","dsRNA":"DRSC23012","mitotic cells, replicate 1":6,"activity call":"inactive"}
{"gene":"B-H2 (BarH2)","dsRNA":"DRSC25817","mitotic cells, replicate 1":10,"activity call":"inactive"}
{"gene":"CG6901","dsRNA":"DRSC16129","mitotic cells, replicate 1":4,"activity call":"inactive"}
{"gene":"CG6901","dsRNA":"DRSC26477","mitotic cells, replicate 1":6,"activity call":"inactive"}
{"gene":"PIG-A (Phosphatidylinositol glycan anchor biosynthesis class A)","dsRNA":"DRSC06982","mitotic cells, replicate 1":3,"activity call":"inactive"}
{"gene":"CG34159","dsRNA":"DRSC23222","mitotic cells, replicate 1":13,"activity call":"inactive"}
{"gene":"CG8736","dsRNA":"DRSC07255","mitotic cells, replicate 1":3,"activity call":"inactive"}
{"gene":"CG8736","dsRNA":"DRSC27360","mitotic cells, replicate 1":4,"activity call":"inactive"}
{"gene":"cola + swif","dsRNA":"DRSC06826","mitotic cells, replicate 1":8,"activity call":"inactive"}
{"gene":"cola + swif","dsRNA":"DRSC21965","mitotic cells, replicate 1":10,"activity call":"inactive"}
{"gene":"CG4049","dsRNA":"DRSC04443","mitotic cells, replicate 1":2,"activity call":"inactive"}
{"gene":"CG4049","dsRNA":"DRSC29138","mitotic cells, replicate 1":5,"activity call":"inactive"}
{"gene":"Thor","dsRNA":"DRSC00770","mitotic cells, replicate 1":2,"activity call":"inactive"}
{"gene":"scpr-A + scpr-C + scpr-B","dsRNA":"DRSC15715","mitotic cells, replicate 1":7,"activity call":"inactive"}
{"gene":"CG15916","dsRNA":"DRSC19740","mitotic cells, replicate 1":12,"activity call":"inactive"}
{"gene":"CG15333","dsRNA":"DRSC18016","mitotic cells, replicate 1":11,"activity call":"inactive"}
{"gene":"CG15333","dsRNA":"DRSC18153","mitotic cells, replicate 1":8,"activity call":"inactive"}
{"gene":"CG7402","dsRNA":"DRSC10839","mitotic cells, replicate 1":8,"activity call":"inactive"}
{"gene":"Ccs (Copper chaperone for superoxide dismutase)","dsRNA":"DRSC06692","mitotic cells, replicate 1":8,"activity call":"inactive"}
{"gene":"CG10862","dsRNA":"DRSC08170","mitotic cells, replicate 1":11,"activity call":"inactive"}

Laid out differently: entries from further up
CG8736 [DRSC07255]
- mitotic cells, replicate 1: 3
- activity call: inactive

CG8736 [DRSC27360]
- mitotic cells, replicate 1: 4
- activity call: inactive
